# The list is a part of this screen's results and no random one: it is rich in T/C values a quarter to a half above the control, in often repeated tests (any T/C) and in doses without a T/C. Other doses and runs of a compound stand elsewhere. T/C is the treated group as % of the vehicle group. Some doses have a count of surviving animals in place of a T/C: the source holds a T/C of zero for them, seemingly a mark for toxic or unscored doses. Some survivor counts are full or nearly so, which does not show that the dose was tolerated: survival well below the control is almost never listed, so the zero probably covers shortened survival too. Counts of survivors are from the toxicity check (mostly the fifth day) where no day follows; animals may have died later. Schedule codes are those of the source, read here as Q, the interval in days (D) or hours (H), X, the number of doses. Where survival is the endpoint, this PubChem deposit counts one and a half times the control or more as active, and values a quarter to a half above the control carry no call in these data; other NCI protocols may use other cut-offs. Some doses were run more than once; the values are given in rising order.
# System: P388 leukemia ip, CD2F1 mice, survival T/C
# Experiment: NCI In Vivo Anticancer Drug Screen. Data for tumor model P388 Leukemia (intraperitoneal) in CD2F1 (CDF1) mice
# Conditions: T/C endpoint: median survival time, higher T/C = longer survival
# [1] = dose: 200.0 mg/kg/injection, schedule: Q01DX009 (ip), vehicle: saline
# [2] = dose: 100.0 mg/kg/injection, schedule: Q01DX009 (ip), vehicle: Klucel (hydroxypropylcellulose) (HPC)
# [3] = dose: 200.0 mg/kg/injection, schedule: Q01DX005 (ip), vehicle: Klucel (hydroxypropylcellulose) (HPC)
compound,measurement,setting,value
CC1=CC(=C(c2ccc(N)cc2)c2ccc(N)cc2)C=CC1=N,T/C,"dose: 3.12 mg/kg/injection, schedule: Q01DX005 (ip), vehicle: water",129 % of control
same,T/C,"dose: 6.25 mg/kg/injection, schedule: Q01DX005 (ip), vehicle: saline",131 % of control
same,T/C,"dose: 6.25 mg/kg/injection, schedule: Q01DX005 (ip), vehicle: water",125 % of control
same,survivor count,"dose: 12.5 mg/kg/injection, schedule: Q01DX005 (ip), vehicle: saline",6 of 6
same,survivor count,"dose: 50.0 mg/kg/injection, schedule: Q01DX005 (ip), vehicle: saline with Tween-80",0 of 5
same,survivor count,"dose: 100.0 mg/kg/injection, schedule: Q01DX005 (ip), vehicle: saline with Tween-80",0 of 5
same,survivor count,"dose: 200.0 mg/kg/injection, schedule: Q01DX005 (ip), vehicle: saline with Tween-80",0 of 5
Nc1cccc(S(=O)(=O)Nc2c(N)[nH]c(=S)[nH]c2=O)c1,T/C,"dose: 120.0 mg/kg/injection, schedule: Q01DX005 (ip), vehicle: Klucel (hydroxypropylcellulose) (HPC)",142 % of control
CN1CCN(C(=O)Nc2ccc(N=Nc3ccccc3)cc2)CC1,T/C,"dose: 6.25 mg/kg/injection, schedule: Q01DX009 (ip), vehicle: saline sonified",125 % of control
c1ccc2c(c1)[nH]c1ccncc12,survivor count,"dose: 100.0 mg/kg/injection, schedule: Q01DX009 (ip), vehicle: saline with Tween-80",3 of 6
CCCCCCCCCCCCCCCc1c(NC(C)(CC)[P+](=O)O)c(=O)n(C)n1C (stereo unspecified),survivor count,"dose: 25.0 mg/kg/injection, schedule: Q01DX009 (ip), vehicle: saline",1 of 6
same,survivor count,"dose: 50.0 mg/kg/injection, schedule: Q01DX009 (ip), vehicle: saline",5 of 6
same,survivor count,[1],1 of 6
C=C1C(=O)OCC1C(=O)O (stereo unspecified),T/C,"dose: 8.0 mg/kg/injection, schedule: Q01DX009 (ip), vehicle: saline",130 % of control
same,T/C,"dose: 16.0 mg/kg/injection, schedule: Q01DX009 (ip), vehicle: saline",130 % of control
same,T/C,"dose: 32.0 mg/kg/injection, schedule: Q01DX009 (ip), vehicle: saline",125 and 142 % of control
same,T/C,"dose: 64.0 mg/kg/injection, schedule: Q01DX009 (ip), vehicle: saline",126 % of control
same,survivor count,"dose: 128.0 mg/kg/injection, schedule: Q01DX009 (ip), vehicle: saline",3 of 6
Clc1ccc2c(c1)C(c1ccccc1)=NCc1nncn1-2,survivor count,[2],5 of 6
CN(C)CCNc1ccc(NCCNCCO)c2c1C(=O)c1ccccc1C2=O,T/C,"dose: 5.0 mg/kg/injection, schedule: Q04DX002 (ip), vehicle: saline",144 % of control
N#Cc1c(-c2ccccc2)c(-c2ccccc2)nn(CCC(=O)O)c1=O,survivor count,"dose: 200.0 mg/kg/injection, schedule: Q04DX002 (ip), vehicle: distilled water + Tween-80",2 of 6
Cn1c(=O)c2c(nc(Br)n2C)n(C)c1=O,survivor count,[2],6 of 6
same,survivor count,"dose: 200.0 mg/kg/injection, schedule: Q01DX009 (ip), vehicle: Klucel (hydroxypropylcellulose) (HPC)",0 of 6
CC(C)CC(N)C(=O)OCN1C(=O)C2C3C=CC(C2C1=O)C1C2C(=O)N(COC(=O)C(N)CC(C)C)C(=O)C2C31 (stereo unspecified),survivor count,[1],5 of 6
CCC[CH2][Sn]([Cl])([CH2]CCC)[S]/C(C#N)=N/N=C/c1ccc(N(C)C)cc1,survivor count,"dose: 30.0 mg/kg/injection, schedule: Q01DX005 (ip), vehicle: saline with Tween-80",3 of 6
same,survivor count,"dose: 60.0 mg/kg/injection, schedule: Q01DX005 (ip), vehicle: saline with Tween-80",0 of 6
same,survivor count,"dose: 120.0 mg/kg/injection, schedule: Q01DX005 (ip), vehicle: saline with Tween-80",3 of 6
same,survivor count,"dose: 240.0 mg/kg/injection, schedule: Q01DX005 (ip), vehicle: saline with Tween-80",0 of 6
COc1ccc2c(ccc3oc([N+](=O)[O-])cc32)c1,T/C,"dose: 50.0 mg/kg/injection, schedule: Q01DX005 (ip), vehicle: Klucel (hydroxypropylcellulose) (HPC)",142 % of control
same,T/C,"dose: 100.0 mg/kg/injection, schedule: Q01DX005 (ip), vehicle: Klucel (hydroxypropylcellulose) (HPC)",132 and 135 % of control
same,T/C,[3],144 % of control
same,survivor count,[3],6 of 6
same,survivor count,"dose: 400.0 mg/kg/injection, schedule: Q01DX005 (ip), vehicle: Klucel (hydroxypropylcellulose) (HPC)",6 of 6
CCCCCCCCCCCCCCCCCC(=O)N[C@@H](Cc1ccc(N(CCCl)CCCl)cc1)C(=O)NCCCCCC,T/C,"dose: 8.47 mg/kg/injection, schedule: Q01DX009 (ip), vehicle: saline",127 % of control
same,T/C,"dose: 16.94 mg/kg/injection, schedule: Q01DX009 (ip), vehicle: saline",145 % of control
CC(=C\c1ccc(Cl)c(Cl)c1)/C(C)=N/NC(N)=Nc1ccccc1,survivor count,"dose: 100.0 mg/kg/injection, schedule: Q04DX002 (ip), vehicle: saline with Tween-80",1 of 6
